Measured values: PMC4012729
No constants are given. Whether binding was seen depends on the method and setting. In cells and extracts the contact can be indirect. A result given as binding can be weak or reduced; the word gives no strength. Blank lines part the entries; values can stand above or below the molecule they belong to.

Chains of the proteins cited; added tags and fusions are not shown. Lines headed by an entry give the natural chain unless they say otherwise; changes in a name come on top.
UniProt P58397: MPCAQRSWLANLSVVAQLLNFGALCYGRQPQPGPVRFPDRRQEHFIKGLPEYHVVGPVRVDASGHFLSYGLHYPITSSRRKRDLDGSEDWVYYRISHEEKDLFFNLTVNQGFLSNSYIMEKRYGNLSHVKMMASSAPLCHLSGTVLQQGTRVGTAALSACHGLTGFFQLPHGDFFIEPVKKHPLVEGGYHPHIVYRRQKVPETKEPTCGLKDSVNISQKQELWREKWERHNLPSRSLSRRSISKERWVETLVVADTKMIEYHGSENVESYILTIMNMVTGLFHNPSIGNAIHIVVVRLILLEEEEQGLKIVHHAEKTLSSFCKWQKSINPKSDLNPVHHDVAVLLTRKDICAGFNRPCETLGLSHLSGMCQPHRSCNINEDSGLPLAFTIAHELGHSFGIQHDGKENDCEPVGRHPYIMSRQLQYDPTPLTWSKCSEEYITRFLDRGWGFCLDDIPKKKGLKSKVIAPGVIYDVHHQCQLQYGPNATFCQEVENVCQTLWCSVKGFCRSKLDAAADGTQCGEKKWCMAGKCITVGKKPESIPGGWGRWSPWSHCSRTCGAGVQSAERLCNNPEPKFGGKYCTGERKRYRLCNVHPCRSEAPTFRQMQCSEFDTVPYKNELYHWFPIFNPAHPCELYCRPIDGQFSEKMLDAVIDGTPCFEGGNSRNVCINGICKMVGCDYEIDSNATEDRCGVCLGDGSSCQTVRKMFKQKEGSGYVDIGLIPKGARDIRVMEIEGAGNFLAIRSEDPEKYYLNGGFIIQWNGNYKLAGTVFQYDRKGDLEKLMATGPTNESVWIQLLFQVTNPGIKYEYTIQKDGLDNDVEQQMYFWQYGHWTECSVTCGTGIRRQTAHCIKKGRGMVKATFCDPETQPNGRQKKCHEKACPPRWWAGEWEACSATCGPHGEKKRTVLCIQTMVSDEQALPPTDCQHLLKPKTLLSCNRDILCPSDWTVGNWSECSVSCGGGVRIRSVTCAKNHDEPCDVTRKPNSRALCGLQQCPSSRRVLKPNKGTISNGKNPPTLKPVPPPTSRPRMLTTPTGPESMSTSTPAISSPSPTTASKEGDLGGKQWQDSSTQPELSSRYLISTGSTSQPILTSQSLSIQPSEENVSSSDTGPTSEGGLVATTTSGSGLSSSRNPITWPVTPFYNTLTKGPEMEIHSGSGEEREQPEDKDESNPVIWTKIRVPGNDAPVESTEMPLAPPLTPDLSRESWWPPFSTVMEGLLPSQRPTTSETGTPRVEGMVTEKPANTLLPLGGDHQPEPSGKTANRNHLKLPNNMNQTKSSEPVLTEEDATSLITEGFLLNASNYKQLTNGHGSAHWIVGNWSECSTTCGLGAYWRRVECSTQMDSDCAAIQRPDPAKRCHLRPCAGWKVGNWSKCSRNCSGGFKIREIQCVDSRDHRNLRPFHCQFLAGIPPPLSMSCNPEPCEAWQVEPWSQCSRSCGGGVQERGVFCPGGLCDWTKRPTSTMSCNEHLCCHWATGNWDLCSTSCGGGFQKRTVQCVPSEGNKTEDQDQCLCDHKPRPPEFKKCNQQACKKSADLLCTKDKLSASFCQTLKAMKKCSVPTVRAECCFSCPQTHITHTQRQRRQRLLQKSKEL

Tests used:
[1] = target: T1, recombinant fibulin-2 (added to 293-EBNA cell extracts) (human) (UniProt P98095); experiment: co-IP; 293-EBNA cell extracts containing ADAMTS-12-FLAG incubated with fibulin-2; immunoprecipitated with anti-fibulin-2 antibody (H-250, Protein G kit); blot for ADAMTS-12; only the target purified
T1 sequence: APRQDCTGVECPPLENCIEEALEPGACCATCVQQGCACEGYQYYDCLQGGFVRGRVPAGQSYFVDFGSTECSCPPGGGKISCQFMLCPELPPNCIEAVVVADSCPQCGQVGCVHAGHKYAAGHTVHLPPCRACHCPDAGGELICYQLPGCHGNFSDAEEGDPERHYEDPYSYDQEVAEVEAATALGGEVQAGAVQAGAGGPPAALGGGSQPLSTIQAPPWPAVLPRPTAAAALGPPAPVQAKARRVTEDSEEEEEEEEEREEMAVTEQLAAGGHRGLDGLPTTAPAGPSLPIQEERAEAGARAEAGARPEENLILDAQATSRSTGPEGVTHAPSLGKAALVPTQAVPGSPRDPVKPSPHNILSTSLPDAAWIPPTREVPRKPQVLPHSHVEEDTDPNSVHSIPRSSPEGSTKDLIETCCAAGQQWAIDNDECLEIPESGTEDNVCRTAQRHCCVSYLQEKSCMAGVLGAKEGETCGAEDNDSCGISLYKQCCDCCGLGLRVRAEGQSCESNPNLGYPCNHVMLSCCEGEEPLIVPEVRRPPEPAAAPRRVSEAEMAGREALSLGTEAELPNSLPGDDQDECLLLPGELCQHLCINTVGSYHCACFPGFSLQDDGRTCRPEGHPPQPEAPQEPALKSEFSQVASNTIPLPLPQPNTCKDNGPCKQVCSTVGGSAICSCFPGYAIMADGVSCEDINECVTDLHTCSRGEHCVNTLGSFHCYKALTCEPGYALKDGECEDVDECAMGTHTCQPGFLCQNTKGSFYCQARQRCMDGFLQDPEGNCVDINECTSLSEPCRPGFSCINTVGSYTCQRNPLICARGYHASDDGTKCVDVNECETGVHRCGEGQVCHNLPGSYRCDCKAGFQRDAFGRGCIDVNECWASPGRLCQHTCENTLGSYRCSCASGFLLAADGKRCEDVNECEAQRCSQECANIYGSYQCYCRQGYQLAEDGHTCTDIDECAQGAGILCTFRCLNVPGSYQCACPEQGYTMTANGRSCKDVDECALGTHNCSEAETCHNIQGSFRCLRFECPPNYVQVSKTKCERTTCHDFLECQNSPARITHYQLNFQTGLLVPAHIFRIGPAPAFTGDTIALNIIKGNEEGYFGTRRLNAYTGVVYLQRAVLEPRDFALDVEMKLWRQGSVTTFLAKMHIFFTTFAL

[2] = target: ADAMTS-12 tagged with a FLAG epitope (293-EBNA cells) (human) (UniProt P58397); experiment: co-IP; 293-EBNA cell extracts containing ADAMTS-12-FLAG incubated with the indicated amounts of fibulin-2; immunoprecipitated with anti-FLAG M2 affinity gel; blot with anti-fibulin-2 antibody; only the binder purified

binding [1]: binds
Molecule: ADAMTS-12 tagged with a FLAG epitope (293-EBNA cells) (from UniProt P58397) (enzyme)

binding [2]: binds
B1: recombinant fibulin-2 (added to 293-EBNA cell extracts) (protein, UniProt P98095 28-1184)
chain: T1 sequence
